Among the data in patent EP4725967A1 (Nanjing Probio Biotech Co., Ltd., dated 2026) are binding values, retold here.

Amino acid sequences for entries named in this document (tags omitted). A change or cut given only in a name is not applied to a line headed by its entry. Chains listed by the source or under a name are the forms on record and can include a tag or linker.
monkey CCR8 (monkey (cyno)) (G7NYJ2, form named): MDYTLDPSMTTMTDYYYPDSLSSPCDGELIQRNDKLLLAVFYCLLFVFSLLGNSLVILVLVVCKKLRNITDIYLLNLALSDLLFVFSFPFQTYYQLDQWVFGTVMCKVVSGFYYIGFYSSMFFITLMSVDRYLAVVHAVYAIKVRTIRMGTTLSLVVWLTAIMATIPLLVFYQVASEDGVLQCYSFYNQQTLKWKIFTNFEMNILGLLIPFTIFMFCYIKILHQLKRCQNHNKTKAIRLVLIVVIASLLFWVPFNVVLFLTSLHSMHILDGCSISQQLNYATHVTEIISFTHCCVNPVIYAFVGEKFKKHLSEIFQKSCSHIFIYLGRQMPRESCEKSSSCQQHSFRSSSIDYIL
UniProt P51685: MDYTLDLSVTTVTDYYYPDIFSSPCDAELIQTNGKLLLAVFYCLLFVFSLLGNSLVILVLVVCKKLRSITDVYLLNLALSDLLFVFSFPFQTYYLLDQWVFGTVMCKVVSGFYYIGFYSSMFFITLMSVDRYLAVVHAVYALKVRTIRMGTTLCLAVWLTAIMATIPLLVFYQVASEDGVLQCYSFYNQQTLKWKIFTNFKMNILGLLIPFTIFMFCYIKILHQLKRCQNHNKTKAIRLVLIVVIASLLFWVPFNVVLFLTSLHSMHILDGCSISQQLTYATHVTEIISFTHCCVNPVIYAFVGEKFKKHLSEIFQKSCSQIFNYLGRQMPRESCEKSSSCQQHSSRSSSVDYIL

No constants are given. Whether binding was seen depends on the method and setting. Some entries that bind do so weakly or less than the wild type.

In test [1] the target is monkey CCR8 (monkey (cyno)) (UniProt G7NYJ2). In words: flow cytometry on HEK293/cyno-CCR8 cells (FIG. 5B). In general terms: Flow cytometry measures light scatter and fluorescence of single cells or particles in a stream.
For test [2], the target named is T1, human CCR8 (human, UniProt P51685 1-355).
T1 construct: whole, on cells; also called hu-CCR8; CC chemokine receptor 8
In words: flow cytometry on HEK293/hu-CCR8 cells (FIG. 5A).

In test [3] the target is monkey CCR8 (monkey (cyno)) (UniProt G7NYJ2). Nature of the test: flow cytometry on HEK293/cyno-CCR8 cells, chimeric antibody (FIG. 2).
The target is the same in test [4]. Nature of the test: flow cytometry, hybridoma supernatant on HEK293/cyno CCR8 cells.

B1: humanized antibody 125C1E6-VH1.1-VL1 (antibody, human IgG1, kappa, V domains shown)
VH: EVQLVESGGGLVQPGGSLKLSCAASGFNFNAYAMNWVRQASGKGLEWVGRIRSKSNYYATYYADSVKDRFTISRDDSKNTAYLQMNSLKTEDTAVYYCVRQGYFGTRESRRYFDVWGQGTLVTVSS
VL: EIVLTQSPGTLSLSPGERATLSCKASESVGSYVSWYQQKPGQAPRLLIYGASTRYTGIPARFSGSGSGTDFTLTISSLEPEDFAVYYCGQNYIYPLTFGGGTKLEIKR
Regarding B1, the binding result in test [1] and in test [2] was “binds” throughout.

B2: humanized antibody 125C1E6-VH3-VL1 (antibody, human IgG1, kappa, V domains shown)
VH: EVQLVESGGGLVQPGRSLRLSCTASGFNFNAYAMNWVRQAPGKGLEWVGRIRSKSNYYATYYADSVKDRFTISRDDSKSIAYLQMNSLKTEDTAVYYCVRQGYFGTRESRRYFDVWGQGTLVTVSS
VL: EIVLTQSPGTLSLSPGERATLSCKASESVGSYVSWYQQKPGQAPRLLIYGASTRYTGIPARFSGSGSGTDFTLTISSLEPEDFAVYYCGQNYIYPLTFGGGTKLEIKR
Take B2: the binding entry in test [1] and in test [2] was “binds” each time.

B3: chimeric antibody 224E9A3 (antibody, human IgG1, kappa, V domains shown)
VH: EVQLVESGGGLVQPKGSLKLSCAASGFTFNTYAMYWVCQAPGKGLEWVARIRSKSNNYATYYADSVKDRFTISRDDSQSMLYLQMNNLKTEDTAMYYCVRGGRGNYLYAMDYWGQGTSVTVSS
VL: DIVMTQAAPSVPVTPGESVSISCRSSKSLLHSNGNTYLYWFLQRPGQSPQLLIYRMSNLASGVPDRFSGSGSGSAFTLRISRVEAEDVGVYYCMQHLEYPFTFGSGTKLEIKR
notes: Murine variable regions on human IgG1/kappa
Consider B3, for which the binding result in test [3] is reported as “binds”.

B4: antibody produced by monoclonal clone 224E9A3 (murine, hybridoma) (antibody, V domains shown)
VH: EVQLVESGGGLVQPKGSLKLSCAASGFTFNTYAMYWVCQAPGKGLEWVARIRSKSNNYATYYADSVKDRFTISRDDSQSMLYLQMNNLKTEDTAMYYCVRGGRGNYLYAMDYWGQGTSVTVSS
VL: DIVMTQAAPSVPVTPGESVSISCRSSKSLLHSNGNTYLYWFLQRPGQSPQLLIYRMSNLASGVPDRFSGSGSGSAFTLRISRVEAEDVGVYYCMQHLEYPFTFGSGTKLEIK
notes: Mouse antibody in hybridoma supernatant
As to B4, the binding entry in test [4] is recorded as “binds”.
